# Results as given in the supplement of paper PMC8728848.
# The other results are listed elsewhere or left out.
# B1: MXA PilAct-eGFP (Myxococcus xanthus), Q59589 (protein)
# chain: MRVSRFNPRNRGFTLIELMIVVAIIGILAAIAIPNFIKFQARSKQSEAKTNLKALYTAQKSFFSEKDRYSDFANEIGFAPERGNRYGYRVSAAAGDCEVRNAADLPVPAAGVPCISNDSFRFGANSAIDDPTPVVARFVPQGAAGWNTTLGVQPTIADCPNCNFFAGARGNADNEATFDDWVIAGFEGSGQVGPCSEAGNVASGTPYNTRNDVACDGAAQ
# Tests used:
# Assay in all cases: glycan array binding signal (z-score within array); higher = stronger binding
# Settings in all cases: glycan notation: IUPAC condensed, linker removed
# [1] = target: GalNAc(b1-4)GlcNAc(b1-2)Man
# In short: (§1)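 From the Consortium for Functional Glycomics database, 3228 arrays were curated, keeping only those whose protein sequence was available. Binding is given as a within-array Z-score averaged across arrays sharing a protein sequence and across linkers. Negative Z-scores can be read as non-binding.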
# [2] = target: GalNAc(b1-4)GlcNAc(b1-2)Man(a1-3)[GalNAc(b1-4)GlcNAc(b1-2)Man(a1-6)]Man(b1-4)GlcNAc(b1-4)GlcNAc
# In short: as §1
# [3] = target: GalNAc(b1-4)GlcNAc(b1-3)GalNAc(b1-4)GlcNAc
# In short: as §1
# [4] = target: GalNAc(b1-4)GlcNAc6S
# In short: as §1
# [5] = target: GalNAc(b1-6)GalNAc
# In short: as §1
# [6] = target: GalNAc3S(b1-4)GlcNAc
# In short: as §1
# [7] = target: GalNAc3S(b1-4)GlcNAc3S
# In short: as §1
# [8] = target: GalNAc3S(b1-4)[Fuc(a1-3)]GlcNAc
# In short: as §1
# [9] = target: GalNAc4S6S(b1-4)GlcNAc
# In short: as §1
# [10] = target: GalNAc6S(b1-4)GlcNAc
# In short: as §1
# [11] = target: Glc(a1-4)Glc
# In short: as §1
# [12] = target: Glc(a1-4)Glc(a1-4)Glc(a1-4)Glc
# In short: as §1
# [13] = target: Glc(a1-6)Glc(a1-6)Glc
# In short: as §1
# [14] = target: Glc(a1-6)Glc(a1-6)Glc(a1-6)Glc
# In short: as §1
# [15] = target: Glc(b1-4)Glc
# In short: as §1
# [16] = target: Glc(b1-6)Glc
# In short: as §1
# [17] = target: GlcA(b1-3)Gal
# In short: as §1
# [18] = target: GlcA(b1-3)GlcNAc
# In short: as §1
# [19] = target: GlcA(b1-6)Gal
# In short: as §1
# [20] = target: GlcA3S(b1-3)Gal(b1-4)GlcNAc(b1-2)Man
# In short: as §1
# [21] = target: GlcA3S(b1-3)Gal(b1-4)GlcNAc(b1-3)Gal(b1-4)Glc
# In short: as §1
# [22] = target: GlcNAc(a1-3)Gal(b1-4)GlcNAc
# In short: as §1
# [23] = target: GlcNAc(a1-4)Gal(b1-3)GlcNAc
# In short: as §1
# [24] = target: GlcNAc(a1-4)Gal(b1-4)GalNAc
# In short: as §1
# [25] = target: GlcNAc(a1-4)Gal(b1-4)GlcNAc
# In short: as §1
# [26] = target: GlcNAc(a1-4)Gal(b1-4)GlcNAc(b1-3)Gal(b1-4)Glc
# In short: as §1
# [27] = target: GlcNAc(a1-4)Gal(b1-4)GlcNAc(b1-3)Gal(b1-4)GlcNAc
# In short: as §1
# [28] = target: GlcNAc(a1-4)Gal(b1-4)GlcNAc(b1-3)Gal(b1-4)GlcNAc(b1-3)Gal(b1-4)GlcNAc
# In short: as §1
# [29] = target: GlcNAc(a1-4)Gal(b1-4)GlcNAc(b1-3)Gal(b1-4)[Fuc(a1-3)]GlcNAc(b1-3)Gal(b1-4)[Fuc(a1-3)]GlcNAc
# In short: as §1
# [30] = target: GlcNAc(a1-6)Gal(b1-4)GlcNAc
# In short: as §1
# [31] = target: GlcNAc(b1-2)Gal(b1-3)GalNAc
# In short: as §1
# [32] = target: GlcNAc(b1-2)Man(a1-3)[GlcNAc(b1-2)Man(a1-6)]Man(b1-4)GlcNAc(b1-4)GlcNAc
# In short: as §1
# [33] = target: GlcNAc(b1-2)Man(a1-3)[GlcNAc(b1-2)Man(a1-6)]Man(b1-4)GlcNAc(b1-4)[Fuc(a1-6)]GlcNAc
# In short: as §1
# [34] = target: GlcNAc(b1-2)Man(a1-3)[GlcNAc(b1-4)][GlcNAc(b1-2)Man(a1-6)]Man(b1-4)GlcNAc(b1-4)GlcNAc
# In short: as §1
# [35] = target: GlcNAc(b1-2)Man(a1-3)[GlcNAc(b1-4)][GlcNAc(b1-2)Man(a1-6)]Man(b1-4)GlcNAc(b1-4)[Fuc(a1-6)]GlcNAc
# In short: as §1
# [36] = target: GlcNAc(b1-2)[GlcNAc(b1-4)]Man(a1-3)[GlcNAc(b1-2)Man(a1-6)]Man(b1-4)GlcNAc(b1-4)GlcNAc
# In short: as §1
# [37] = target: GlcNAc(b1-2)[GlcNAc(b1-4)]Man(a1-3)[GlcNAc(b1-4)][GlcNAc(b1-2)Man(a1-6)]Man(b1-4)GlcNAc(b1-4)GlcNAc
# In short: as §1
# [38] = target: GlcNAc(b1-2)[GlcNAc(b1-4)]Man(a1-3)[GlcNAc(b1-4)][GlcNAc(b1-2)[GlcNAc(b1-6)]Man(a1-6)]Man(b1-4)GlcNAc(b1-4)GlcNAc
# In short: as §1
# [39] = target: GlcNAc(b1-2)[GlcNAc(b1-4)]Man(a1-3)[GlcNAc(b1-4)][GlcNAc(b1-2)[GlcNAc(b1-6)]Man(a1-6)]Man(b1-4)GlcNAc(b1-4)[Fuc(a1-6)]GlcNAc
# In short: as §1
# [40] = target: GlcNAc(b1-2)[GlcNAc(b1-6)]Man(a1-6)[GlcNAc(b1-2)Man(a1-3)]Man(b1-4)GlcNAc(b1-4)GlcNAc
# In short: as §1
# [41] = target: GlcNAc(b1-2)[GlcNAc(b1-6)]Man(a1-6)[GlcNAc(b1-2)Man(a1-3)]Man(b1-4)GlcNAc(b1-4)[Fuc(a1-6)]GlcNAc
# In short: as §1
# [42] = target: GlcNAc(b1-2)[GlcNAc(b1-6)]Man(a1-6)[GlcNAc(b1-4)][GlcNAc(b1-2)Man(a1-3)]Man(b1-4)GlcNAc(b1-4)GlcNAc
# In short: as §1
# [43] = target: GlcNAc(b1-3)Fuc
# In short: as §1
# [44] = target: GlcNAc(b1-3)Gal
# In short: as §1
# [45] = target: GlcNAc(b1-3)Gal(b1-3)GalNAc
# In short: as §1
binder,measurement,setting,value
B1,glycan array binding signal (z-score),[1],-1.27
same,glycan array binding signal (z-score),[2],-0.271
same,glycan array binding signal (z-score),[3],-0.708
same,glycan array binding signal (z-score),[4],-0.68
same,glycan array binding signal (z-score),[5],-0.528
same,glycan array binding signal (z-score),[6],-1.2
same,glycan array binding signal (z-score),[7],-1.4
same,glycan array binding signal (z-score),[8],-0.368
same,glycan array binding signal (z-score),[9],-1.04
same,glycan array binding signal (z-score),[10],0.26
same,glycan array binding signal (z-score),[11],-0.029
same,glycan array binding signal (z-score),[12],-0.314
same,glycan array binding signal (z-score),[13],-0.432
same,glycan array binding signal (z-score),[14],-0.924
same,glycan array binding signal (z-score),[15],-0.326
same,glycan array binding signal (z-score),[16],1.37
same,glycan array binding signal (z-score),[17],0.781
same,glycan array binding signal (z-score),[18],-0.977
same,glycan array binding signal (z-score),[19],-0.632
same,glycan array binding signal (z-score),[20],1.26
same,glycan array binding signal (z-score),[21],0.578
same,glycan array binding signal (z-score),[22],-0.245
same,glycan array binding signal (z-score),[23],0.196
same,glycan array binding signal (z-score),[24],0.004
same,glycan array binding signal (z-score),[25],0.559
same,glycan array binding signal (z-score),[26],-1.08
same,glycan array binding signal (z-score),[27],-1.21
same,glycan array binding signal (z-score),[28],0.596
same,glycan array binding signal (z-score),[29],1.45
same,glycan array binding signal (z-score),[30],-0.059
same,glycan array binding signal (z-score),[31],-0.873
same,glycan array binding signal (z-score),[32],0.002
same,glycan array binding signal (z-score),[33],1.93
same,glycan array binding signal (z-score),[34],-0.621
same,glycan array binding signal (z-score),[35],0.749
same,glycan array binding signal (z-score),[36],-0.242
same,glycan array binding signal (z-score),[37],-0.022
same,glycan array binding signal (z-score),[38],0.285
same,glycan array binding signal (z-score),[39],-1.52
same,glycan array binding signal (z-score),[40],1.06
same,glycan array binding signal (z-score),[41],0.675
same,glycan array binding signal (z-score),[42],-0.556
same,glycan array binding signal (z-score),[43],0.003
same,glycan array binding signal (z-score),[44],-0.839
same,glycan array binding signal (z-score),[45],0.175

# Fetched one by one from above, 3 records:
binder,measurement,setting,value
B1,glycan array binding signal (z-score),[17],0.781
same,glycan array binding signal (z-score),[9],-1.04
same,glycan array binding signal (z-score),[28],0.596
